Laboratory results reported in the supplement of paper PMC12823440, “Inhibitors supercharge kinase turnover through native proteolytic circuits” (Nature, 2025).
This is one part of the list. The calls rarely recur for the same compound in another form.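 Kinases were expressed as nanoluciferase fusions in K562 cells and luminescence was read every 4 h between 2 and 18 h as percent of control, DMSO set to 100% and a positive control to 0%. A time point counts as decreased when the signal drops significantly (2 sigma). The hit call is the authors' own, does not follow from the count of time points alone, and its rule is not shown.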

Protein sequences, listed by entry. Tags and fused reporters are not part of them. Lines headed by an entry give the natural chain unless they say otherwise; changes in a name come on top.
UniProt P14616: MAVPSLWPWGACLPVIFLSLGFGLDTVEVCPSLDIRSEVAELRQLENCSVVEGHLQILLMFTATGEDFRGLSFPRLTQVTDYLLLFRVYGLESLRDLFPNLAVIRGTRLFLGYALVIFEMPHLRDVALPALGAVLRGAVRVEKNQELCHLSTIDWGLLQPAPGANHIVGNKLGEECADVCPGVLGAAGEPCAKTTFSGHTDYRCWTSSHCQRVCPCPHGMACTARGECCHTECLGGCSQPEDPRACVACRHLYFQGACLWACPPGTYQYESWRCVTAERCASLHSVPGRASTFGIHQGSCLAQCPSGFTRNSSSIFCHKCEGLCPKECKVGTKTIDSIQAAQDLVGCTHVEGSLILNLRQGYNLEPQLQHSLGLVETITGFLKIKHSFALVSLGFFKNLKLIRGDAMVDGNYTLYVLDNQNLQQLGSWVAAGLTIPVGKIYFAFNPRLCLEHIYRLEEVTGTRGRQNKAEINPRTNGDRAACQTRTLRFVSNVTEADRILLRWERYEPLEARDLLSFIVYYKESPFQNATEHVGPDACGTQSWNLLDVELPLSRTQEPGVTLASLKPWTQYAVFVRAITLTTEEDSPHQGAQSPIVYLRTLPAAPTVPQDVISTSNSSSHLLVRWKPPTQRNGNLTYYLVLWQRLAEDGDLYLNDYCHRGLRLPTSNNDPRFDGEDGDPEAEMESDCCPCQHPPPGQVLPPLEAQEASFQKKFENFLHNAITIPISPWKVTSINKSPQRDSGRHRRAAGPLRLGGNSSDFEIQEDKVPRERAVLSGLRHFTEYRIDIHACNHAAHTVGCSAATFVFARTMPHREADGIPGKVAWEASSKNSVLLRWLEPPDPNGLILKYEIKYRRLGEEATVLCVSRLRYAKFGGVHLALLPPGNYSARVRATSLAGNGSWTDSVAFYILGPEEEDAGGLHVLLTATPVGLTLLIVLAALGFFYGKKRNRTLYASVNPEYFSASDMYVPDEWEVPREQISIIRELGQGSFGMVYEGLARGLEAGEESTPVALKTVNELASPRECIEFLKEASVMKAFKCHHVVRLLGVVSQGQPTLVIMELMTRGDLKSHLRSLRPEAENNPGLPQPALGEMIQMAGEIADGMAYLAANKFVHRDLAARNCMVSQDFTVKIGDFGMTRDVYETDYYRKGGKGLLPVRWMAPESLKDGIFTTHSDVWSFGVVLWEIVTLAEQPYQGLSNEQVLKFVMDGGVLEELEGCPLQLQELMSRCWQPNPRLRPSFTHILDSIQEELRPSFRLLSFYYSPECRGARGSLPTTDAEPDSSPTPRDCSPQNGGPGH

target: INSRR (UniProt P14616); test: kinase-Nluc reporter destabilization hit call (1 = scored as downregulated) (binary); higher = compound decreases kinase abundance; details: K562; 2-18 h

kinase-Nluc reporter destabilization hit call, inactive:
Fc1ccc(Cl)cc1-c1nc(Nc2ccncc2)c2nccnc2n1 (10 µM) 0
CN1CCC(Nc2ccc(C(=O)Nc3cc(-c4ccc5c(c4)OCO5)[nH]n3)cc2)CC1 (10 µM) 0
CN1CCC(Nc2nc(Nc3ccc(Oc4ccccc4)cc3)c3c(=O)[nH]cc(Br)c3n2)CC1 (2.5 µM) 0
O=C(COc1ccc(Cl)cc1)NC1CCC(NC(=O)COc2ccc(Cl)cc2)CC1 (stereo not drawn) [ISRIB (trans-isomer)] (10 µM) 0
Cc1ccc(C2CC(=O)NC(SCC(=O)Nc3nccs3)=C2C#N)cc1 (configuration not stated) [Necrostatin-34] (10 µM) 0
CCCCNc1ncc(C(=O)NCc2ccc(-n3ccnc3)cc2)c(NC2CCC(O)CC2)n1 (configuration not stated) (10 µM) 0
O=C1NC(=O)C(Cc2c[nH]c3c(Cl)cccc23)N1 (configuration not stated) [Necroptosis-IN-1] (10 µM) 0
O=C1C=CC2=C3c4cc(O)c(O)cc4CC3(O)COC2=C1O (configuration not stated) [Hematein] (10 µM) 0
NC(=O)c1cnc(N[C@@H]2CCCC[C@@H]2N)nc1Nc1cccc(-n2nccn2)c1 (2.5 µM) 0
COc1cc2nc(-c3cc(F)ccc3O)nc(N[C@@H]3CNC[C@H]3C(C)(C)O)c2cc1OC (2.5 µM) 0
CN1CCN(Cc2ccc(-c3cn(C4CCC(O)CC4)c4nc(NCCC5CC5)ncc34)cc2)CC1 (configuration not stated) (2.5 µM) 0
O=S(=O)(c1ccc(O)cc1O)N1Cc2cc(O)cc(O)c2C1 (10 µM) 0

Looked up by structure from the entries so far (2):
kinase-Nluc reporter destabilization hit call, inactive:
O=C1C=CC2=C3c4cc(O)c(O)cc4CC3(O)COC2=C1O (configuration not stated) [Hematein] (10 µM) 0
Cc1ccc(C2CC(=O)NC(SCC(=O)Nc3nccs3)=C2C#N)cc1 (configuration not stated) [Necrostatin-34] (10 µM) 0
